Results reported in paper PMC7699638.
These are yes or no findings as the source states them, for the method shown. Some entries that bind do so weakly or less than the wild type.

Protein sequences, listed by entry. Tags and fused reporters are not part of them. Lines headed by an entry give the natural chain unless they say otherwise; changes in a name come on top. Chains listed by the source or under a name are the forms on record and can include a tag or linker.
UniProt O75116: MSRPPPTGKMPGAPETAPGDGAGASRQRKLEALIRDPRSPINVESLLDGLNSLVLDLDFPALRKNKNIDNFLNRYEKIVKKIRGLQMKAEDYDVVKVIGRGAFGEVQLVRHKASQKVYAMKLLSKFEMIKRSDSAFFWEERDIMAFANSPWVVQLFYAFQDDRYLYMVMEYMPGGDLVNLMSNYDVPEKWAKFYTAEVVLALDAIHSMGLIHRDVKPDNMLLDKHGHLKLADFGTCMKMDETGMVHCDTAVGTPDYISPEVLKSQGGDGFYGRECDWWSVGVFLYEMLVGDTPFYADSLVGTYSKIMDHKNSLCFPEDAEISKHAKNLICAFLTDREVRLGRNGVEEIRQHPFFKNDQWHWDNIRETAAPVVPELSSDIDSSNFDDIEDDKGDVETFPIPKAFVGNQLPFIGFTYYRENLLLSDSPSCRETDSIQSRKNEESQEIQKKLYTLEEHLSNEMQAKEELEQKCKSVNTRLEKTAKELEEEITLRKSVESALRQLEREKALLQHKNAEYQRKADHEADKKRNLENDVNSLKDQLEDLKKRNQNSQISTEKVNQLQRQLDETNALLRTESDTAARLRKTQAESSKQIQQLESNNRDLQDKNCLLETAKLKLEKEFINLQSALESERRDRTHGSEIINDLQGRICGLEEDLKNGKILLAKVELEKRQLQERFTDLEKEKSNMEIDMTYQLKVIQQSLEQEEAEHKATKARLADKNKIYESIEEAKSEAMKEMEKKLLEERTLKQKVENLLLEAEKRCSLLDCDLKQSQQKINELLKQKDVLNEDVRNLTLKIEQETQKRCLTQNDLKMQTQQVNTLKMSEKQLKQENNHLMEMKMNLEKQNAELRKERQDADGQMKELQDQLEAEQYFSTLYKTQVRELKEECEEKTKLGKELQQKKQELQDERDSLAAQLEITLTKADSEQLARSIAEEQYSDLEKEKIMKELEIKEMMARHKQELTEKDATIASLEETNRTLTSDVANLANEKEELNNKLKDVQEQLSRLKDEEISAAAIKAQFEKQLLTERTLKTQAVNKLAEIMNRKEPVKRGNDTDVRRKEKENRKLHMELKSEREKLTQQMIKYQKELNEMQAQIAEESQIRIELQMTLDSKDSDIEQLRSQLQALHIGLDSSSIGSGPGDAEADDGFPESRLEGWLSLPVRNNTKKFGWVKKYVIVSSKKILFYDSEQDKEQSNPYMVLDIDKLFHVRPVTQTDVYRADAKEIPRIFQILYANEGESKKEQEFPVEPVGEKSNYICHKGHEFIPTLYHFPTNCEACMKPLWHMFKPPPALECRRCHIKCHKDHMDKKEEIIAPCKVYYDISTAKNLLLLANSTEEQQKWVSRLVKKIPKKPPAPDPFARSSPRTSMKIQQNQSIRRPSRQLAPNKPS
RhoA (1-181), His-tagged (P61586, form named): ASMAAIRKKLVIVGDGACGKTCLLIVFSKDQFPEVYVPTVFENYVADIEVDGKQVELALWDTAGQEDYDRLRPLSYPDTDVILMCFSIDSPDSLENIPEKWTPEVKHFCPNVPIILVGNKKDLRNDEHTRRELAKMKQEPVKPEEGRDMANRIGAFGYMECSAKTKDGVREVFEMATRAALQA

Molecular target: full-length ROCK2 (Rho-associated protein kinase 2), MBP tag removed (human) (UniProt O75116)
Test: SEC; Superose 12; 20 mM HEPES pH 7.4, 150 mM NaCl, 3 mM MgCl2; 5 µM ROCK2, 5 µM RhoA and 5 µM BODIPY-GTP in combinations; absorbance at 280 and 488 nm; both purified

binding: binds weakly
Substance: RhoA (1-181), His-tagged (from UniProt P61586 1-181) (domain or fragment)
